In patent publication US20120238566A1, “USE OF CELL AUTOPHAGY (TYPE II CELL APOPTOSIS) INHIBITORS” (priority 2009, published 2012):
At least one structure is not confirmed: it was looked up by name or label, or the drawing left a doubt.

What was measured:
Balb/c mice lung = settings: mouse, in vivo
purified PI3K = settings: cited from earlier work
A549 cells [1] = settings: 5 uM, 4 hours, positive control, result stated from literatures; cited from earlier work
Hela cells [2] = settings: 5 μM, 4 hours, positive control, result stated from literatures; cited from earlier work
A549 cells [3] = settings: 4 hours, positive control, result stated from literatures; cited from earlier work
Hela cells [4] = settings: 4 hours, positive control, result stated from literatures; cited from earlier work

Compound	lung wet/dry ratio (Balb/c mice lung)	IC50 (purified PI3K) [nM]	percentage of autophagy cells (type II PCD) observed under electron microscope (A549 cells [1])	percentage of autophagy cells (type II PCD) observed under electron microscope (Hela cells [2])	percentage of cells with EGFP-LC3 agglutination (A549 cells [3])	percentage of cells with EGFP-LC3 agglutination (Hela cells [4])
O=c1cc(N2CCOCC2)oc2c(-c3ccccc3)cccc12 [LY294002]	decreased the augmentation of wet/dry ratio	1400	–	–	–	–
COC[C@H]1OC(=O)c2coc3c2[C@@]1(C)C1=C(C3=O)[C@@H]2CCC(=O)[C@@]2(C)C[C@H]1OC(C)=O [Wortmannin, wortmannin]	decreased the augmentation of wet/dry ratio	–	–	–	–	–
CO[C@H]1C[C@@H]2CC[C@@H](C)[C@@](O)(O2)C(=O)C(=O)N2CCCC[C@H]2C(=O)O[C@H]([C@H](C)C[C@@H]2CC[C@@H](O)[C@H](OC)C2)CC(=O)[C@H](C)/C=C(\C)[C@@H](O)[C@@H](OC)C(=O)[C@H](C)C[C@H](C)/C=C/C=C/C=C/1C [Rapamycin]	–	–	results in the occurrence of cell autophagy	results in the occurrence of cell autophagy	induces the occurrence of cell autophagy	induces the occurrence of cell autophagy
